# Results of single-concentration screens

Data taken from ChEMBL document CHEMBL3988442, “University of Dundee, Small-Polar-MMV Screening Library” (2021).

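Phenotypic screen: M. tuberculosis growth, glucose 7H9 medium, 3 days; the read-out is not stated. Compounds at 50 µM. The record gives no direction; compounds that gave an IC50 in retests scored well above the rest, so higher reads as more growth inhibition. Size under these conditions: about 69,000 compounds, about 760 of them at 50% or above in at least one test.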

Each number is a percent effect as filed. The record does not define 0% and 100%; most values in the screen are far below 50% and negative numbers occur (in some assays of this library far below -100). This is an unselected part of the compounds tested. Two or more numbers in one place are separate tests of the same structure; such repeats can differ widely.

With CC(C)CN1CCn2c(COCc3cccnc3)nnc2C1.O=C(O)C(F)(F)F.O=C(O)C(F)(F)F the screen gave 13.78% & 1.9%. With CC(=O)N1CCCC1c1cccc(Cc2ccccc2F)n1 (centres unmarked) the screen gave 62.97%. For COC(=O)[C@@H]1Cc2ncn(C(C)C)c2CN1S(=O)(=O)Cc1ccccc1 the result was -3.165% & 15.61%. With O=C(c1ccc(C(F)(F)F)cc1)C1CCCN(C(=O)Cn2cnnn2)C1 (centres unmarked) the screen gave 6.668%. Result for CCn1nc(C)cc1C(=O)N1CCCN(CCCc2ccccc2)CC1 was 24.58%. For [H][C@]12CC[C@]([H])(CN(Cc3[nH]cnc3C)C1)N(Cc1ccc(C)o1)C2 the result was 4.358% & -34.75%. COC(=O)c1ccc(NC(=O)CCc2ccco2)cc1 read 15.18%.

Result for c1ccc(-c2nnc3sc(CCN4CCCCCC4)nn23)cc1 was 5.586%. With CC(=O)c1ccc(-c2cnn(CC(=O)Nc3cc(C)nn3C)c2)nc1 the screen gave -14.39% & -7.643%. For O=c1oc2ccccc2n1CCCN1CCCC1c1ccc(O)cc1 (centres unmarked) the result was -6.707%. With CCc1ccc(S(=O)(=O)N2CCN(CCn3ccnc3)CC2)cc1 the screen gave -6.766%. For O=C(c1ccc2[nH]ccc2c1)N1CCCSCC1CN1CCCC1 (centres unmarked) the result was 22.57%. O=C(C1CNCCN1C(=O)CCOc1ccccc1)N1CCOCC1 (centres unmarked) gave -3.335%. O=C(NCc1ccccc1Cl)c1[nH]nc2c1CS(=O)(=O)CC2 read 15.3%.

Result for CCn1cc(S(=O)(=O)N2CCN(S(=O)(=O)c3ccc(Br)s3)CC2)cn1 was 20.88%. c1cc(N2CCOCC(Cc3ccc4[nH]ccc4c3)C2)ncn1 (centres unmarked) read 4.125%. CN(C)CC1(O)CCCN(c2noc(-c3ccccc3)n2)CC1 (centres unmarked) gave -4.348%. Result for C1CCN(CCN2CCCCC2C2OCCO2)CC1 (centres unmarked) was 5.336%. With CC(C)(C)OC(=O)N1CCC(NC2CCS(=O)(=O)C2)CC1 (centres unmarked) the screen gave 3.624% & 18.26%. COCCCNC(=O)C1(NC(=O)c2ccc3[nH]ncc3c2)CCCC1 read -25.98%. Cc1nc(CC(C)C)cc(C(=O)N2C[C@@H](N(C)C)[C@H](C(C)C)C2)n1 gave -20.97% & 9.106%.

For Fc1cccc(-c2nnn3c2COC(CNCc2ccsc2)C3)c1.O=C(O)C(F)(F)F (centres unmarked) the result was 4.898% & 23.91%. For O=C(c1ccco1)N1CCC2(CCCN(c3ncc(F)cn3)C2)C1 (centres unmarked) the result was -9.547%. For CCOCCn1c(=O)n(CCC=C(C)C)c2cc(C(=O)O)cnc21 the result was 8.022% & -9.112%. CC(C)c1nc(/C=C/c2cnn(-c3ccccc3)c2)ncc1C(=O)O gave -3.051%. With Cc1noc(C)c1CCC(=O)N1CCCC(n2cccn2)C1 (centres unmarked) the screen gave 14.26%. CC(CN1CCOCC1)OC(=O)c1ccccc1Cl.Cl (centres unmarked) gave -2.043%. For Cc1ocnc1C(=O)N(C)[C@@H]1CCC[C@@H](N2CCCC2)[C@@H]1O the result was 9.789%.

Result for O=S(=O)(c1cccnc1)N1CCCC1COc1ccccc1 (centres unmarked) was 3.534% & 9.103%. With O=C(Cn1cc(C(=O)O)ccc1=O)Nc1ccc(F)cc1Cl the screen gave -19.54%. [H][C@@]12CN(c3cccnc3)CC[C@]1([H])CN(c1ncccn1)C2 gave -0.4759%. Result for Cc1ccnc(C2(C)CCCN2S(=O)(=O)c2cccnc2)n1 (centres unmarked) was -11.73%. COc1ccc(Oc2ncccc2NC(=O)N2CCOCC2C)cc1 (centres unmarked) read -3.24%. Result for Cc1cnc(C(=O)N2CCCC(Cn3cc(CC(C)C)nn3)C2)cn1 (centres unmarked) was 21.59%. For O=C(c1cc[nH]n1)N1CCOCC2(C1)CN(c1ccccc1)C(=O)CO2 (centres unmarked) the result was -11.3%.

Cc1cc(C)nc(NCCC(=O)Nc2ccc(Cn3cncn3)cc2)n1 read -6.78% & 3.032%. For O=C(O)C(F)(F)F.O=C(O)C(F)(F)F.c1cnc(N2CCOC3(CCCN(c4cnccn4)C3)C2)nc1 (centres unmarked) the result was 9.648%. Cc1cc(C2CCCN(Cc3cccnc3)C2)n[nH]1 (centres unmarked) read 2.932% & -77.49%. Result for CCN1CC2(CCCCN2C(=O)C2CCCCC2)CC1=O (centres unmarked) was -4.098% & -5.446%. Result for CN(C)S(=O)(=O)c1csc(C(=O)N2CCC(C(N)=O)CC2)c1 was -15.95%. For COCCCNS(=O)(=O)c1ccc2c(c1)NC(=O)C(C)O2 (centres unmarked) the result was -12.13%. Result for O=C(CCN1CCOC(CNc2cccnn2)C1)NC1CCCCC1 (centres unmarked) was -11.32%.

CN1CCc2nc(C3CCCCN3Cc3ccccc3Cl)ncc2C1 (centres unmarked) read 5.121%. With O=C(O)C(F)(F)F.O=C(O)C(F)(F)F.[H][C@@]12CCCO[C@]1([H])[C@H](OCc1ccccn1)CN2Cc1c(C)noc1C the screen gave -0.2183%. For CCOc1ccccc1-n1c(C2CC2)n[nH]c1=O the result was -13.16%. For CN(Cc1ccncc1)C(CO)c1cccc(F)c1 (centres unmarked) the result was -4.029%. O=C(O)C(F)(F)F.[H][C@]12CCN(C(=O)CC3CC3)[C@@]1([H])CC[C@@H](COCc1cccc(C)n1)O2 gave -33.54%. c1nc(C2CCCCO2)ncc1CN1CCOCC1 (centres unmarked) gave -27.76%. N#CCCN(Cc1ccccn1)C(=O)Nc1cccc(F)c1 gave -8.12% & -0.6794%.

Result for CCCN(Cc1nc(-c2ccc(F)c(OC)c2)oc1C)CC1CCCO1 (centres unmarked) was -6.164%. With COc1cccc(CCNC(=O)CN2CCCC2c2noc(C)n2)c1 (centres unmarked) the screen gave -5.591%. Result for Cc1ccc2oc(SCC(N)=O)nc2n1 was 11.52%. NC(=O)CNC(c1ccccc1)c1ccc(OC(F)F)cc1 (centres unmarked) gave 2.603% & -1.4%.

Repeated from the top, 4 entries:

* CC(C)CN1CCn2c(COCc3cccnc3)nnc2C1.O=C(O)C(F)(F)F.O=C(O)C(F)(F)F : 13.78% & 1.9%
* CC(=O)N1CCCC1c1cccc(Cc2ccccc2F)n1 (centres unmarked) : 62.97%
* COC(=O)[C@@H]1Cc2ncn(C(C)C)c2CN1S(=O)(=O)Cc1ccccc1 : -3.165% & 15.61%
* O=C(c1ccc(C(F)(F)F)cc1)C1CCCN(C(=O)Cn2cnnn2)C1 (centres unmarked) : 6.668%